Source: US12691069B2 (KORANEX CAPITAL, priority 2022, dated 2026)

Assay: peptide synthesis
Details: whole synthesis, RP-HPLC

## PEPTIDE1{[Mdp].G.G.F.L.R.R.I.R.P.K.[am]}$$$$V2.0
  final HPLC purity: ≥98%

Strings that start with PEPTIDE1 are HELM notation: dots part the residues, brackets hold end groups and non-standard residues.
